PubChem BioAssay AID686943 | Drosophila RNAi Screening Center, 2013

Aim: 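Search across the genome for regulators of signalling from receptor tyrosine kinase to ERK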 (primary screen)
System: Drosophila S2R+ haemocyte-like cells expressing YFP-tagged ERK (Rolled)
Reagent: long dsRNA against Drosophila genes
Treatment: insulin stimulation versus unstimulated cells; dose and duration not given
Measurement: 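Per-plate z-scores of phospho-ERK immunostaining normalised to YFP-tagged ERK, measured with and without insulin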
Direction: replicate 1, z-score of dpERK with insulin: higher = more active ERK per ERK-YFP after insulin
The deposit covers about 23,000 reagents; this is a random part of those with a known target gene and a result. 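Extra replicates exist only for a retested subset of genes; insulin dose and duration not given; both raised and lowered dpERK matter.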 Names joined by + are all predicted targets of the reagent. Not all columns of the deposit are shown. No sequences are given here. Not stated in the record: the amount of reagent, the time to read-out.

The first 4 records, ahead of the listing:
Target gene,dsRNA,"replicate 1, z-score of dpERK with insulin"
alphaCOP (Coat Protein (coatomer) alpha),DRSC08706,1.59
SiaT (Sialyltransferase),DRSC04494,-0.02
CG31710,DRSC01089,0.13
CG31710,DRSC22863,-0.4

Main list, from the start:
Target gene,dsRNA,"replicate 1, z-score of dpERK with insulin"
alphaCOP (Coat Protein (coatomer) alpha),DRSC08706,1.59
SiaT (Sialyltransferase),DRSC04494,-0.02
CG31710,DRSC01089,0.13
CG31710,DRSC22863,-0.4
CG31249,DRSC16248,0.8
cdi (center divider),DRSC16922,-1.09
CG10804,DRSC17764,0.02
pk (prickle),DRSC06178,-0.88
pk (prickle),DRSC07664,-0.52
pk (prickle),DRSC22156,-0.37
CG9101,DRSC20152,0
CG9689,DRSC18440,1.07
CG8701,DRSC07237,0.02
CG3436,DRSC00605,-1.28
CG2267,DRSC15435,-0.29
Gr57a (Gustatory receptor 57a),DRSC06401,0.39
scpr-A + scpr-C + scpr-B,DRSC15715,-0.59
CG7135,DRSC20026,0.91
ninaB (neither inactivation nor afterpotential B),DRSC16807,-0.1
Tango2 (Transport and Golgi organization 2),DRSC19394,0.17
Tango2 (Transport and Golgi organization 2),DRSC21526,-0.14
ND-B22 (NADH dehydrogenase (ubiquinone) B22 subunit),DRSC03193,-0.76
CG33229,DRSC07863,-0.11
Ugt35D1 (UDP-glycosyltransferase family 35 member D1),DRSC15107,-0.38
CG13436,DRSC06396,0.25
EloA (Elongin A),DRSC16109,0.69
CG18649,DRSC10334,0.55
Cpsf5 (Cleavage and polyadenylation specific factor 5),DRSC10374,-1.16
CG12128,DRSC06104,0.32
CG31106,DRSC14655,-0.09
CG12971,DRSC11681,0.83
CG17242,DRSC00493,-0.2
Bulli,DRSC10974,0
CG15597,DRSC12283,0.93
modSP (modular serine protease),DRSC16726,0.76
modSP (modular serine protease),DRSC16857,0.53
modSP (modular serine protease),DRSC21489,-0.83
CG10081,DRSC05962,0.21
GstE2 (Glutathione S transferase E2),DRSC06672,0.12
pasi1 (pasiflora 1),DRSC16299,1.04
pasi1 (pasiflora 1),DRSC22385,0.1
CG4390,DRSC15572,0.62
CG42699,DRSC18076,0.11
CG42699,DRSC18341,0.54
cer (crammer),DRSC05992,-0.15
Son (Son RNA binding protein),DRSC16400,1.17
CG1806,DRSC19787,0.62
CG13723,DRSC10052,0.09
Nnp-1,DRSC02165,-0.84
CG15515,DRSC15054,-0.14
crol (crooked legs),DRSC03514,0.07
crol (crooked legs),DRSC21348,0.43
Cyp9c1 (Cytochrome P450 9c1),DRSC04607,-0.31
CG42540,DRSC08327,-0.93
CG42540,DRSC08328,-1.7
CG42540,DRSC08593,-2.34
CG13384,DRSC02258,0.24
Dpy-30L1 (Dpy-30-like 1),DRSC02959,0.32
ReepB (Receptor expression enhancing protein B),DRSC07150,0.37
PIP5K59B (Phosphatidylinositol 4-phosphate 5-kinase 59B),DRSC04290,0.09
PIP5K59B (Phosphatidylinositol 4-phosphate 5-kinase 59B),DRSC04403,0.63
Polr1B (RNA polymerase I subunit B),DRSC00780,0.29
Mettl3 (Methyltransferase like 3),DRSC15921,0.01
ng1 (new glue 1),DRSC18802,0.11
CG17660,DRSC00513,-0.25
CR32511 (pseudo),DRSC20697,0.06
msk (moleskin),DRSC11340,1.68
side-VII (sidestep VII),DRSC14578,0.35
ced-6,DRSC07591,0.25
Or85f (Odorant receptor 85f),DRSC16769,0.6
beat-Va (beaten path Va),DRSC14192,-0.49
CG15097,DRSC06526,0.87
CG3092,DRSC04336,-0.28
